No constants are given. Whether binding was seen depends on the method and setting.
Biological target: RAP1(57-152), RAP1(22-152) with the RAP1 rhoptry signal deleted (P. falciparum 3D7) (UniProt Q9U429)
Test: pull-down; 100 ug His6-tagged RAP1 recombinant protein immobilised on TALON resin, incubated O/N at 4 C with purified GST-fusion proteins in pull-down buffer (50 mM Na2HPO4, 75 mM NaCl, 0.1% Triton X-100, 5 mM imidazole, pH 7.4); eluted with imidazole; Coomassie gel and immunoblot with anti-GST; both purified

Sequences of proteins named here, by UniProt entry; tags and fusion partners are left off. Residues count along the entry.
UniProt Q6VVE5, residues 759-840: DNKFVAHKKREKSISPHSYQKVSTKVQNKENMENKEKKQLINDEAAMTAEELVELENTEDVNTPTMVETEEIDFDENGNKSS

RAMAE, RAMA-GST fusion protein representing amino acids 759-840 (from UniProt Q6VVE5 759-840) (domain or fragment)
binding: no binding

From paper PMC2648313, “Identification of Rhoptry Trafficking Determinants and Evidence for a Novel Sorting Mechanism in the Malaria Parasite Plasmodium falciparum” (PLoS Pathogens, 2009)
